# Results published in PubChem BioAssay.
# This is one part of the list. These are further read-outs of the screen, such as a control signal, another cell line or another target. No call is given for them. Compounds called inactive in the main read-out are mostly missing here.
# Experiment: enhancers of SMN2 over SMN1 splicing, cell-based, SMN2/SMN1 luciferase reporters (AID 1598)
# Conditions: SMN2 vs SMN1 luciferase splicing reporter cells, at 10 µM; SMN1 luciferase ratio: measured here: SMN1 luciferase reporter average; SMN2 luciferase ratio: measured here: SMN2 luciferase reporter average, stronger effect = higher value
SMILES,SMN2 luciferase ratio,SMN1 luciferase ratio
CC[C@H]1CN2CCC1C[C@@H]2[C@@H](O)c1ccnc2ccc(OC)cc12 (some centres not stated),0.9,0.88
O=C(O)CCCc1ccc(N(CCCl)CCCl)cc1,0.86,0.95
NC(=O)CN1CCCC1=O,0.86,0.95
CCC1(c2ccccc2)C(=O)NC(=O)NC1=O,1.04,0.83
CCN1C[C@@]2(COC)C3[C@@H](OC)[C@H]4[C@@H]1[C@]3(C(OC)C[C@H]2O)C1C[C@@]2(O)[C@H](OC(=O)c3ccccc3)C1[C@]4(OC(C)=O)[C@@H](O)[C@@H]2OC (some centres not stated),0.88,0.92
CC(C)CC(NC(=O)C(Cc1ccccc1)NC(=O)CNC(=O)CNC(=O)C(N)Cc1ccc(O)cc1)C(=O)O (configuration not stated),0.98,0.91
OC1CCCCC1N1CCC(c2ccccc2)CC1 (configuration not stated),1,0.87
C=C[C@H]1CN2CC[C@H]1C[C@@H]2[C@@H](OC(=O)OCC)c1ccnc2ccc(OC)cc12,0.9,0.88
CN1CC[C@]23c4c5ccc(O)c4O[C@H]2C(=O)CCC3[C@H]1C5 (some centres not stated),0.88,0.88
CC[C@@H]1/C=C/C=C/C[C@H](C)[C@@H](O)[C@](C)(O)C(=O)[C@H](C)[C@@H](O)[C@H](C)C(=O)[C@H](C)[C@@H](O)[C@H](C)/C=C/C(=O)O[C@H]2[C@@H](C)[C@@H](CC1)O[C@@]1(CC[C@@H](C)[C@@H](C[C@H](C)O)O1)[C@@H]2C,0.37,0.28
CC[C@@]1(O)C[C@H](O[C@H]2C[C@H](N(C)C)[C@H](O)[C@H](C)O2)c2c(cc3c(c2O)C(=O)c2c(O)cccc2C3=O)[C@H]1C(=O)OC,0.08,0.05
